# Source: PMC5996148
# Where “and” joins values, the source holds several entries; their conditions need not be identical. Equal values may be shown once. The list shows a part of the results. For some assays here: The source does not settle which construct or isoform was used.
# Columns and labels:
# Assay in all cases: protein microarray (ProtoArray v5.0), streptavidin-Alexa Fluor 647
# Settings in all cases: 3'-biotin; 20 mM Tris (pH 7.5), 5 mM MgCl2, 100 mM KCl, 0.1% Tween-20, A/T-rich and random oligonucleotide blockers; temperature not stated; high values mean tight binding
# MLX (human) = tested on: MLX (human)
# MMP12 (human) = tested on: MMP12 (human)
# MOBKL1A = target: T1, MOBKL1A (UniProt Q7L9L4)
# T1 sequence: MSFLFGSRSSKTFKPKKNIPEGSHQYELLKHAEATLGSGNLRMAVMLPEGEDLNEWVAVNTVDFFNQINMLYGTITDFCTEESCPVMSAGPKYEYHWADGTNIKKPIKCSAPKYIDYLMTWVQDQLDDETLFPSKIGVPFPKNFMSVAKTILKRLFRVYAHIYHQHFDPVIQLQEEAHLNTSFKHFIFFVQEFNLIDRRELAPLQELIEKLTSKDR
# MOGAT3 (human) = tested on: MOGAT3 (human)
# MPI (human) = tested on: MPI (human)
# MPP7 = target: T2, MPP7 (UniProt Q5T2T1)
# T2 sequence: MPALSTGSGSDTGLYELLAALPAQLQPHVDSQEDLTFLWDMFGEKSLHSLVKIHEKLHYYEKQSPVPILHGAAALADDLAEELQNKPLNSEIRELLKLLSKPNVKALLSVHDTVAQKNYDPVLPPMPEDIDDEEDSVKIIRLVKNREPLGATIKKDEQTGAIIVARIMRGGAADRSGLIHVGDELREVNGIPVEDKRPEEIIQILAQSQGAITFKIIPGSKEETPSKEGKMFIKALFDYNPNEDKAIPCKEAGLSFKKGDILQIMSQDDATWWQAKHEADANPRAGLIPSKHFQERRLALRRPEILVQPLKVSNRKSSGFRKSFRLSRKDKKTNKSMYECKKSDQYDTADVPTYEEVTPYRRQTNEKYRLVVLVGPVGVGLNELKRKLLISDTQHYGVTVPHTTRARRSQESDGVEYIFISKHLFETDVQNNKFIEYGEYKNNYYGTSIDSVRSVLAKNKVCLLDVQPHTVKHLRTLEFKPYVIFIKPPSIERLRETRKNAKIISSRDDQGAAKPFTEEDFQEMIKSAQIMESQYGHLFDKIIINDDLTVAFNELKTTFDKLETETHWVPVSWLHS
# MPPED2 (human) = tested on: MPPED2 (human)
# MR1 (human) = tested on: MR1 (human)
# MRS2L (human) = tested on: MRS2L (human)
# MSRB3 (human) = tested on: MSRB3 (human)
# MTAP (human) = tested on: MTAP (human)
# MTHFR (human) = tested on: MTHFR (human)
# MTMR1 (human) = tested on: MTMR1 (human)
# MTMR2 (human) = tested on: MTMR2 (human)
# MUCL1 (human) = tested on: MUCL1 (human)
# MX1 (human) = tested on: MX1 (human)
# MXD4 (human) = tested on: MXD4 (human)
# MYCBP (human) = tested on: MYCBP (human)
# Malcavernin (human) = tested on: Malcavernin (human)
# Mammaglobin-A (human) = tested on: Mammaglobin-A (human)
sequence,measurement,setting,value
GGGGACAGGGGTATGGGGAGGGG [G4-3 biotinylated (CtG)],binding signal,MLX (human),-0.338 z-score and -0.336 z-score
same,binding signal,MMP12 (human),-0.33 z-score
same,binding signal,MOBKL1A,-0.311 z-score
same,binding signal,MOGAT3 (human),-0.343 z-score
same,binding signal,MPI (human),-0.332 z-score
same,binding signal,MPP7,3.33 z-score
same,binding signal,MPPED2 (human),-0.297 z-score
same,binding signal,MR1 (human),-0.301 z-score
same,binding signal,MRS2L (human),-0.337 z-score
same,binding signal,MSRB3 (human),-0.328 z-score
same,binding signal,MTAP (human),-0.306 z-score and -0.335 z-score
same,binding signal,MTHFR (human),-0.327 z-score
same,binding signal,MTMR1 (human),-0.328 z-score
same,binding signal,MTMR2 (human),-0.351 z-score
same,binding signal,MUCL1 (human),-0.309 z-score
same,binding signal,MX1 (human),-0.324 z-score
same,binding signal,MXD4 (human),-0.317 z-score
same,binding signal,MYCBP (human),-0.329 z-score
same,binding signal,Malcavernin (human),-0.328 z-score
same,binding signal,Mammaglobin-A (human),-0.333 z-score

# Two neighbouring entries out of the list so far, quoted:
sequence,measurement,setting,value
GGGGACAGGGGTATGGGGAGGGG [G4-3 biotinylated (CtG)],binding signal,MOGAT3 (human),-0.343 z-score
same,binding signal,MPI (human),-0.332 z-score
